Reference: the supplement of paper PMC10849652
Some of the results follow. Residues, ends and D or L forms follow the SMILES beside them. *: point of attachment. Cbz = O=C(OCc1ccccc1)*

Sequences of proteins named here, by UniProt entry; tags and fusion partners are left off. A change or cut given only in a name is not applied to a line headed by its entry.
UniProt Q9NX02: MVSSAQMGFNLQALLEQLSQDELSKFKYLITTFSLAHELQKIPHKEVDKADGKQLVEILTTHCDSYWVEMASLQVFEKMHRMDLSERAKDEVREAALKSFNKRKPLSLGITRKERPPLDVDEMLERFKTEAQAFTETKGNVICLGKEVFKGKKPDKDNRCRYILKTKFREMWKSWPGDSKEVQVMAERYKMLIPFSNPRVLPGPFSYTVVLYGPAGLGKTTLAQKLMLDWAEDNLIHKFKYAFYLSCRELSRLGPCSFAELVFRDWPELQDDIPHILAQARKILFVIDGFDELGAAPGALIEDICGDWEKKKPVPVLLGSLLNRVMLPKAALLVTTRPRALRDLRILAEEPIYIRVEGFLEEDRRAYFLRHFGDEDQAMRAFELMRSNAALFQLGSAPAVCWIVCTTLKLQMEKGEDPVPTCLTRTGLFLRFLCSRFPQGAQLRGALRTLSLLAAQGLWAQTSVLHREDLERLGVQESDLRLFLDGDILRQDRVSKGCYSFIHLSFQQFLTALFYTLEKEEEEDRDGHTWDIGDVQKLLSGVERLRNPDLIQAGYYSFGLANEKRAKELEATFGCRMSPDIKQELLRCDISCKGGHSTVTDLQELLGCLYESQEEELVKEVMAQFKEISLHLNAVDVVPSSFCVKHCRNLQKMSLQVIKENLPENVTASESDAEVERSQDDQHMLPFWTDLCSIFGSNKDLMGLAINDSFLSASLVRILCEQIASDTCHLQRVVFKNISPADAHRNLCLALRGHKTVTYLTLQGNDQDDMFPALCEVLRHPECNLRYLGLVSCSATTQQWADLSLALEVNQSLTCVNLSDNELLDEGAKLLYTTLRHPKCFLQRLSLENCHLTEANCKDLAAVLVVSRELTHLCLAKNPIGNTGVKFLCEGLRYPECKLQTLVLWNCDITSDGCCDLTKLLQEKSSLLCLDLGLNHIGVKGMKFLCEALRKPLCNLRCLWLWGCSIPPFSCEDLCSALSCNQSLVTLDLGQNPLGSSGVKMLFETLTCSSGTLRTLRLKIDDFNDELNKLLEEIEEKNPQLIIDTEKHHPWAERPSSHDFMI
UniProt P24468: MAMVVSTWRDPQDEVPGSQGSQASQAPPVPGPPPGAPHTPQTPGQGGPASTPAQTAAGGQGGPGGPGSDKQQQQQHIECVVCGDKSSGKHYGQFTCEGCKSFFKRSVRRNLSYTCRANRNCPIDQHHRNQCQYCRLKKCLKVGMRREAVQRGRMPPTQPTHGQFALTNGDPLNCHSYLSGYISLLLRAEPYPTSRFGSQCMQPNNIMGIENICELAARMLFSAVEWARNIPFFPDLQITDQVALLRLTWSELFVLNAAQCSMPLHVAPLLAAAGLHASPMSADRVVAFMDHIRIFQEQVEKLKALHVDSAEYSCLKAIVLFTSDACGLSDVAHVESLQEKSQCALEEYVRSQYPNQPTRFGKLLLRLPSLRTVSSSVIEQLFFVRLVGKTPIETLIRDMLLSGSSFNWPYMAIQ
UniProt Q9Y3C1: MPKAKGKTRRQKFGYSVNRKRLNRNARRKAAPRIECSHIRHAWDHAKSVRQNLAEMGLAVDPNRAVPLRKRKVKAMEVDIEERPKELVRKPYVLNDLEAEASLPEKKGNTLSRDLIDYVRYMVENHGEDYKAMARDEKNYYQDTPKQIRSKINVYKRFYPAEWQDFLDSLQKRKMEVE
UniProt Q8TDX7: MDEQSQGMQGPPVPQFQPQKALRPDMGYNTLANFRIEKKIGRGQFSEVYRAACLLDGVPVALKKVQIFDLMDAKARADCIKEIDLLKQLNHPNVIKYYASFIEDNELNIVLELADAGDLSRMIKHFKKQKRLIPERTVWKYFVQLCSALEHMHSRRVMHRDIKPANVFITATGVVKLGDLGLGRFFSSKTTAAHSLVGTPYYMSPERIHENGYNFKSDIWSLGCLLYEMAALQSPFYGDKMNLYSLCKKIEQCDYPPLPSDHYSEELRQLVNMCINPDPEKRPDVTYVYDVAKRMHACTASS
UniProt Q9UNZ2: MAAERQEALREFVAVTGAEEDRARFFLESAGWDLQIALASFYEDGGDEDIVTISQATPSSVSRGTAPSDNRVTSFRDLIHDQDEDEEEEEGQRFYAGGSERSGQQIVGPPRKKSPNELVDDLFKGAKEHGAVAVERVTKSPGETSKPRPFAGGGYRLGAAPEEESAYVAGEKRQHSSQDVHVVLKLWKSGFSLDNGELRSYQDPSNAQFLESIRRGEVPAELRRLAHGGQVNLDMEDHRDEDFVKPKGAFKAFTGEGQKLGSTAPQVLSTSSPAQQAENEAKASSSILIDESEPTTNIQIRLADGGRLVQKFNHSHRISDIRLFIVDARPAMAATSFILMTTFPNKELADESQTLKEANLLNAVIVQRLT
UniProt Q9UMS0: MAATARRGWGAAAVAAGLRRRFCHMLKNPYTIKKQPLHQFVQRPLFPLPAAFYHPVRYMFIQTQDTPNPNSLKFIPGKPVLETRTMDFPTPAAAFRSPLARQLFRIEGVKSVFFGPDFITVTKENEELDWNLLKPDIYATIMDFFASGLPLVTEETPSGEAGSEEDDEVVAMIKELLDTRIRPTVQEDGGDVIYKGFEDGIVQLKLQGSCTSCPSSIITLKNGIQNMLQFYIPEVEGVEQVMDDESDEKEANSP
UniProt Q9BPW8: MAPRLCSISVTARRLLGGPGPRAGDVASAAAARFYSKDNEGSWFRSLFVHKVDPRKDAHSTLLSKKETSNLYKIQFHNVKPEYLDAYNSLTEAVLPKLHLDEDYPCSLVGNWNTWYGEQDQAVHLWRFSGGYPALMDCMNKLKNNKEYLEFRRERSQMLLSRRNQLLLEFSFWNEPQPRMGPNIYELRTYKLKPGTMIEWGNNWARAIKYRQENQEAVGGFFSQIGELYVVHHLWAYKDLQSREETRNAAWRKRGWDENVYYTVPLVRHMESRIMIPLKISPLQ
UniProt P19838: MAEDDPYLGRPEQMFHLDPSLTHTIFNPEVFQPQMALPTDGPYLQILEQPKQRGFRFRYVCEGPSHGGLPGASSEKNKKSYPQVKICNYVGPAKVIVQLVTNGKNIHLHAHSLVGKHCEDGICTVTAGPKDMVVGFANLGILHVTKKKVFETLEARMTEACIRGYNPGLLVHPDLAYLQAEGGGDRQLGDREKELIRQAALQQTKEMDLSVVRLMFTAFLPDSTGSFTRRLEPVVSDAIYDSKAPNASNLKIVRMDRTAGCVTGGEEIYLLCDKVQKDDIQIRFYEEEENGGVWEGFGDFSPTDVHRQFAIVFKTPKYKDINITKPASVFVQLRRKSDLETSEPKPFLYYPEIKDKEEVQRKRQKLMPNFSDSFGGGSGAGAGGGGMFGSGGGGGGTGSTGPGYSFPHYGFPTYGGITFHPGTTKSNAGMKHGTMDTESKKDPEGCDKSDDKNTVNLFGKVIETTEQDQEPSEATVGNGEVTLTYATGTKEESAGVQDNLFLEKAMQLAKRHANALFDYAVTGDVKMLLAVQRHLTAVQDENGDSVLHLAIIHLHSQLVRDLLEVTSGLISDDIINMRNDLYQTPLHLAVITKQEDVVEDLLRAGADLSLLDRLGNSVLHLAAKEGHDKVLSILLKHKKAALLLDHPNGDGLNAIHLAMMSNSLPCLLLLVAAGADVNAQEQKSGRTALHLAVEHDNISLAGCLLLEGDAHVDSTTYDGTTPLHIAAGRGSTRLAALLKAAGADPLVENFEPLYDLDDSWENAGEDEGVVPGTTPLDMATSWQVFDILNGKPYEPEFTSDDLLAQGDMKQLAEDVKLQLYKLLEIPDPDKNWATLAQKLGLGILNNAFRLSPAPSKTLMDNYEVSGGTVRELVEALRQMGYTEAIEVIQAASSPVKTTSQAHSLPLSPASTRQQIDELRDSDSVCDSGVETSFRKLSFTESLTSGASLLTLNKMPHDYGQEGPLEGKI
UniProt P46459: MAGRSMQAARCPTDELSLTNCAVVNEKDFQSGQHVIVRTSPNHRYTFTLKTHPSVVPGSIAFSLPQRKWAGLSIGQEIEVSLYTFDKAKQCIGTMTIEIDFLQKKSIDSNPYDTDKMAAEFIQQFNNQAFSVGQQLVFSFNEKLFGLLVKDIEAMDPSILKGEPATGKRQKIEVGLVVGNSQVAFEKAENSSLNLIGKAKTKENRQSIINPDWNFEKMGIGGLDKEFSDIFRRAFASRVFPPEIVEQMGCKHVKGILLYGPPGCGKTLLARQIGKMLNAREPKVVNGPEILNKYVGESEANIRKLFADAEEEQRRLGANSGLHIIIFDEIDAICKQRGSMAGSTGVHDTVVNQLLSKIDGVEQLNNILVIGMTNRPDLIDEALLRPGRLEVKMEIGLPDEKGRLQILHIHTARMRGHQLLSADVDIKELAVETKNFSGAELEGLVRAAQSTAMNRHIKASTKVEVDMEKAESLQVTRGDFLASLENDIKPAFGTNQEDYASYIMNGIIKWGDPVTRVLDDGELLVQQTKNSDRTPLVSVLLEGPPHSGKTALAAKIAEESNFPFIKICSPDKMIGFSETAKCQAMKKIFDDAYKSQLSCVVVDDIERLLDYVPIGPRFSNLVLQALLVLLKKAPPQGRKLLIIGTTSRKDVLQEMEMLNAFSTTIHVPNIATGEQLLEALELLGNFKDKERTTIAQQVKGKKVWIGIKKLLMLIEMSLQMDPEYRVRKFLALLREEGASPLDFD
UniProt Q9NVX2: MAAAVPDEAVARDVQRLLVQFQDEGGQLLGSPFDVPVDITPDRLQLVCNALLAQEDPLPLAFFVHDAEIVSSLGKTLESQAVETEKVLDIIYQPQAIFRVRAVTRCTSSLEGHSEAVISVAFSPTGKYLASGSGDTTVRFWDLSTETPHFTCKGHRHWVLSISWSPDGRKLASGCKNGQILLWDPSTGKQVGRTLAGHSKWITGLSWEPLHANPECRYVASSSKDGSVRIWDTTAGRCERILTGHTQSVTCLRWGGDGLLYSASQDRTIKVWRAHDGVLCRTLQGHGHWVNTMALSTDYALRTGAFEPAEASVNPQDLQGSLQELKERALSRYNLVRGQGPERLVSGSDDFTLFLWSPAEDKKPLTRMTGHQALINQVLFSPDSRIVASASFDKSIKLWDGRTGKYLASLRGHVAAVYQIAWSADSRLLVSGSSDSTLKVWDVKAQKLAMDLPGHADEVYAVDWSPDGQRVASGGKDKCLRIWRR
UniProt Q8NC60: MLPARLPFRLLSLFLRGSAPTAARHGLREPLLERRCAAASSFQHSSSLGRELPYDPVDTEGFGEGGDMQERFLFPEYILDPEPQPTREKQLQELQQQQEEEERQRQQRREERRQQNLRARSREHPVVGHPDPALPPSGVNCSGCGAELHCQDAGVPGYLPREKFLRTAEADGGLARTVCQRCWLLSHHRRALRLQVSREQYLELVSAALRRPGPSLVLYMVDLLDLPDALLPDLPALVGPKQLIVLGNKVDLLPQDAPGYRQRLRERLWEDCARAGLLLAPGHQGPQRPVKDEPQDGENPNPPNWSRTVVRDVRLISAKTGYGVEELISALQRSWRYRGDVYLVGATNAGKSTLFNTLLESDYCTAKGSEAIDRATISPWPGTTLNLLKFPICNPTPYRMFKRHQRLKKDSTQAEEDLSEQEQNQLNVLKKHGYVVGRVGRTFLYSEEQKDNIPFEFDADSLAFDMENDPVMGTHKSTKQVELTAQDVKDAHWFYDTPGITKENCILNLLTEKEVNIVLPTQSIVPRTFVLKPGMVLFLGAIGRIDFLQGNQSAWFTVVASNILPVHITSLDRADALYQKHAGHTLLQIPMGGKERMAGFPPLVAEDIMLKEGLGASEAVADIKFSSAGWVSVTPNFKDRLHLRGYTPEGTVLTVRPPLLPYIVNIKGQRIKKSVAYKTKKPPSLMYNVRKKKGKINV
UniProt Q13232: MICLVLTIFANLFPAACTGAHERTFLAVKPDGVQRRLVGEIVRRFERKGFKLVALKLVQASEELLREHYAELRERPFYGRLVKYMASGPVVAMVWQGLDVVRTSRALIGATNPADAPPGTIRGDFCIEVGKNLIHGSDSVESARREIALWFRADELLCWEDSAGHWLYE
UniProt P16083: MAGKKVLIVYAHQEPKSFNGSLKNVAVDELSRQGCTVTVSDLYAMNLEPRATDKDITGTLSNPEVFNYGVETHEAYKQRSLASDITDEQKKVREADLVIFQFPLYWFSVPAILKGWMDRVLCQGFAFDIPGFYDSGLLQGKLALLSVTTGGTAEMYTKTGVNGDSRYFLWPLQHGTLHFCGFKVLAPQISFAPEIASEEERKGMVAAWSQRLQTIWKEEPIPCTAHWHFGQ

Key:
Assay in all cases: log2 fold change, soluble protein after heating vs DMSO (PISA); higher = thermal stabilisation; K562 cells, 10 uM, 30 min; active = over 0.2 and 3.5 SD of the protein, either way, in both replicates (recomputed)
IRAK-1-4 Inhibitor I = compound: C1COCCN1CCN2C3=CC=CC=C3N=C2NC(=O)C4=CC(=CC=C4)[N+](=O)[O-] [IRAK-1-4 Inhibitor I]
Procedure, shortened: (§1)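 K562 cells at 2×10^6 cells/mL were exposed to 10 μM compound for 30 min, then aliquots were heated for 3 min across 48°C-58°C, pooled, and extracted in PBS containing 0.5% NP-40 at 4°C. The supernatant after 21,000xg for 90 min was taken as soluble protein and measured by TMTpro 16plex LC-MS/MS with channel sums equalised. Thermal stability is reported relative to control samples, with values from duplicates. Fold changes are given on a log2 scale.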

ibrutinib = compound: C=CC(=O)N1CCC[C@@H](n2nc(-c3ccc(Oc4ccccc4)cc3)c3c(N)ncnc32)C1 [ibrutinib]
Procedure, shortened: as §1

[1] = compound: CC(=O)c1cnc2ccc(-c3cc(Cl)c(O)c(Cl)c3)nc2c1N[C@H]1CC[C@H](CN(C)C)CC1
Procedure, shortened: as §1

ralimetinib = compound: CC(C)(C)Cn1c(N)nc2ccc(-c3[nH]c(C(C)(C)C)nc3-c3ccc(F)cc3)nc21 [ralimetinib]
Procedure, shortened: as §1

[2] = compound: CC(C)(O)CC(=O)NCCn1ccc2ncnc(Nc3ccc(Oc4cccc(C(F)(F)F)c4)c(Cl)c3)c21
Procedure, shortened: as §1

[3] = compound: CC(C)C1=C2N=C(C=C(N2N=C1)NCC3=CC=CC=C3)NCCCCCCN
Procedure, shortened: as §1

[4] = compound: CC(C)C[C@@H](C=O)NC(=O)[C@H](CC(C)C)NC(=O)[C@H](CC(C)C)NC(=O)OCc1ccccc1
Procedure, shortened: as §1

pinometostat = compound: CC(C)N(C[C@H]1O[C@@H](n2cnc3c(N)ncnc32)[C@H](O)[C@@H]1O)[C@H]1C[C@@H](CCc2nc3cc(C(C)(C)C)ccc3[nH]2)C1 [pinometostat]
Procedure, shortened: as §1

[5] = compound: CC1=C(C(CC(=O)N1)C2=CC=C(C=C2)C(F)(F)F)C(=O)NC3=C(C=C4C(=C3)C=NN4)F
Procedure, shortened: as §1

[6] = compound: CC1=C(C2=C(C=C1)C(=O)C3=CC=CC=C3N2CCCN)C
Procedure, shortened: as §1

[7] = compound: CC1=C(C=C(C=C1)NC(=O)C2=CC(=CC=C2)C(C)(C)C#N)NC3=CC4=C(C=C3)N=CN(C4=O)C
Procedure, shortened: as §1

[8] = compound: CC1=C(C=C(C=C1)NC(=O)C2=CC(=CC=C2)N(C)C)NC(=O)C3=CC=C(C=C3)O
Procedure, shortened: as §1

[9] = compound: CC1=CC=C(C=C1)SC2=C3C=C(SC3=CN=C2)C(=O)N
Procedure, shortened: as §1

[10] = compound: CC1=NC(=CC=C1)C2=C(N=C(N2)C(C)(C)C)C3=CC4=NC=CN=C4C=C3
Procedure, shortened: as §1

Nexturastat A = compound: CCCCN(Cc1ccc(C(=O)NO)cc1)C(=O)Nc1ccccc1 [Nexturastat A]
Procedure, shortened: as §1

vemurafenib = compound: CCCS(=O)(=O)Nc1ccc(F)c(C(=O)c2c[nH]c3ncc(-c4ccc(Cl)cc4)cc23)c1F [vemurafenib]
Procedure, shortened: as §1

[11] = compound: CCCS(=O)(=O)Nc1ccc(F)c(C(=O)c2c[nH]c3ncc(Cl)cc23)c1F
Procedure, shortened: as §1

[12] = compound: CCCc1cc(C)[nH]c(=O)c1CNC(=O)c1cc(-c2ccnc(N3CCN(C)CC3)c2)cc2c1cnn2C(C)C
Procedure, shortened: as §1

givinostat = compound: CCN(CC)Cc1ccc2cc(COC(=O)Nc3ccc(C(=O)NO)cc3)ccc2c1 [givinostat]
Procedure, shortened: as §1

barasertib = compound: CCN(CCCOc1ccc2c(Nc3cc(CC(=O)Nc4cccc(F)c4)[nH]n3)ncnc2c1)CCOP(=O)(O)O [barasertib]
Procedure, shortened: as §1

Measured: log2 fold change

NLRP2 (UniProt Q9NX02)
inactive: IRAK-1-4 Inhibitor I -0.095 | ibrutinib -0.056 | [1] 0.024 | ralimetinib 0.165 | [2] -0.067 | [3] -0.269 | [4] 0.051 | pinometostat 0.139 | [5] 0.066 | [6] 0.02 | [7] -0.071 | [8] -0.008 | [9] 0.054 | [10] -0.019 | Nexturastat A 0.145 | vemurafenib 0.075 | [11] 0.078 | [12] 0.087 | givinostat 0.062 | barasertib 0.005

NR2F2 (UniProt P24468)
inactive: IRAK-1-4 Inhibitor I -0.024 | ibrutinib -0.028 | [1] 0.045 | ralimetinib -0.098 | [2] -0.02 | [3] 0 | [4] 0.029 | pinometostat 0.027 | [5] -0.064 | [6] -0.015 | [7] -0.017 | [8] -0.025 | [9] -0.003 | [10] 0.065 | Nexturastat A -0.083 | vemurafenib -0.031 | [11] -0.019 | [12] 0 | givinostat -0.018 | barasertib 0.105

NRAS (UniProt P01111)
inactive: IRAK-1-4 Inhibitor I 0.045 | ibrutinib 0.005 | [1] -0.093 | ralimetinib -0.038 | [2] 0.041 | [3] 0.13 | [4] -0.021 | pinometostat -0.029 | [5] -0.024 | [6] 0.003 | [7] -0.062 | [8] -0.001 | [9] -0.028 | [10] 0.004 | Nexturastat A -0.011 | vemurafenib 0.025 | [11] -0.028 | [12] 0.017 | givinostat -0.018 | barasertib -0.038

NFXL1 (UniProt Q6ZNB6)
inactive: IRAK-1-4 Inhibitor I 0.025 | ibrutinib 0.003 | [1] 0.014 | ralimetinib 0.014 | [2] -0.004 | [3] 0.157 | [4] 0.021 | pinometostat -0.015 | [5] 0.003 | [6] 0.075 | [7] -0.023 | [8] -0.034 | [9] 0.01 | [10] 0 | Nexturastat A -0.019 | vemurafenib -0.012 | [11] -0.01 | [12] -0.064 | givinostat -0.042 | barasertib 0.037

NOP16 (UniProt Q9Y3C1)
inactive: IRAK-1-4 Inhibitor I -0.229 | ibrutinib 0.104 | [1] 0.16 | ralimetinib 0.19 | [2] 0.122 | [3] 0.078 | [4] 0.138 | pinometostat 0.279 | [5] -0.007 | [6] -0.554 | [7] -0.143 | [8] 0.013 | [9] -0.085 | [10] -0.061 | Nexturastat A 0.259 | vemurafenib -0.15 | [11] -0.086 | [12] 0.12 | givinostat -0.024 | barasertib -0.085

NF2 (UniProt P35240)
inactive: IRAK-1-4 Inhibitor I 0.007 | ibrutinib 0 | [1] -0.12 | ralimetinib 0.029 | [2] -0.058 | [3] -0.047 | [4] -0.035 | pinometostat 0.032 | [5] -0.011 | [6] 0.059 | [7] 0.088 | [8] 0.048 | [9] -0.024 | [10] -0.025 | Nexturastat A -0.011 | vemurafenib 0.019 | [11] 0.015 | [12] 0.019 | givinostat 0.111 | barasertib -0.036

NEK7 (UniProt Q8TDX7)
inactive: IRAK-1-4 Inhibitor I 0.007 | ibrutinib 0.065 | [1] -0.037 | ralimetinib -0.045 | [2] -0.076 | [3] -0.047 | [4] 0.076 | pinometostat -0.002 | [5] 0.001 | [6] 0.102 | [7] 0.022 | [8] 0.021 | [9] 0.013 | [10] 0.091 | Nexturastat A -0.104 | vemurafenib -0.017 | [11] 0.035 | [12] 0.027 | givinostat 0.038 | barasertib 0.021

NSFL1C isoform 5 (UniProt Q9UNZ2)
inactive: IRAK-1-4 Inhibitor I 0 | ibrutinib -0.014 | [1] -0.009 | ralimetinib -0.031 | [2] -0.075 | [3] -0.014 | [4] 0.004 | pinometostat -0.062 | [5] -0.003 | [6] 0.007 | [7] 0.109 | [8] -0.008 | [9] 0.025 | [10] 0.157 | Nexturastat A -0.13 | vemurafenib 0.01 | [11] 0.053 | [12] 0.022 | givinostat -0.032 | barasertib 0.015

NFU1 (UniProt Q9UMS0)
inactive: IRAK-1-4 Inhibitor I 0.063 | ibrutinib 0.034 | [1] 0.014 | ralimetinib -0.093 | [2] -0.016 | [3] -0.085 | [4] -0.086 | pinometostat -0.045 | [5] 0.022 | [6] 0.08 | [7] 0.001 | [8] 0.002 | [9] 0.046 | [10] 0.013 | Nexturastat A -0.042 | vemurafenib 0.054 | [11] -0.022 | [12] -0.018 | givinostat -0.022 | barasertib 0.02

NIPSNAP1 (UniProt Q9BPW8)
inactive: IRAK-1-4 Inhibitor I -0.001 | ibrutinib 0.09 | [1] -0.072 | ralimetinib 0.004 | [2] 0.027 | [3] -0.001 | [4] -0.083 | pinometostat -0.023 | [5] -0.016 | [6] 0.019 | [7] 0.051 | [8] -0.003 | [9] 0.032 | [10] 0.041 | Nexturastat A -0.041 | vemurafenib 0.109 | [11] 0.053 | [12] -0.016 | givinostat -0.047 | barasertib -0.018

NFKB1 isoform 2 (UniProt P19838)
inactive: IRAK-1-4 Inhibitor I 0.011 | ibrutinib -0.123 | [1] -0.088 | ralimetinib 0.004 | [2] -0.086 | [3] -0.407 | [4] 0.092 | pinometostat 0.126 | [5] 0.085 | [6] 0.035 | [7] -0.074 | [8] 0.025 | [9] -0.132 | [10] 0.002 | Nexturastat A 0.086 | vemurafenib 0.051 | [11] 0.047 | [12] 0.055 | givinostat 0.066 | barasertib -0.032

NSF (UniProt P46459)
inactive: IRAK-1-4 Inhibitor I -0.011 | ibrutinib -0.004 | [1] 0.009 | ralimetinib -0.004 | [2] -0.079 | [3] -0.105 | [4] 0.047 | pinometostat 0.026 | [5] 0.004 | [6] 0.053 | [7] -0.002 | [8] -0.026 | [9] 0.006 | [10] 0.039 | Nexturastat A -0.054 | vemurafenib 0.038 | [11] 0.017 | [12] 0.016 | givinostat 0.014 | barasertib 0.029

Copied from the results shown (two entries):
NIPSNAP1 (UniProt Q9BPW8)
inactive: IRAK-1-4 Inhibitor I -0.001 | ibrutinib 0.09 | [1] -0.072 | ralimetinib 0.004 | [2] 0.027 | [3] -0.001 | [4] -0.083 | pinometostat -0.023 | [5] -0.016 | [6] 0.019 | [7] 0.051 | [8] -0.003 | [9] 0.032 | [10] 0.041 | Nexturastat A -0.041 | vemurafenib 0.109 | [11] 0.053 | [12] -0.016 | givinostat -0.047 | barasertib -0.018

NFKB1 isoform 2 (UniProt P19838)
inactive: IRAK-1-4 Inhibitor I 0.011 | ibrutinib -0.123 | [1] -0.088 | ralimetinib 0.004 | [2] -0.086 | [3] -0.407 | [4] 0.092 | pinometostat 0.126 | [5] 0.085 | [6] 0.035 | [7] -0.074 | [8] 0.025 | [9] -0.132 | [10] 0.002 | Nexturastat A 0.086 | vemurafenib 0.051 | [11] 0.047 | [12] 0.055 | givinostat 0.066 | barasertib -0.032

Next results follow:

NLE1 (UniProt Q9NVX2)
inactive: IRAK-1-4 Inhibitor I 0.029 | ibrutinib 0.034 | [1] 0.026 | ralimetinib -0.007 | [2] 0.029 | [3] 0.054 | [4] -0.034 | pinometostat -0.051 | [5] -0.033 | [6] 0.016 | [7] 0.014 | [8] -0.019 | [9] 0.039 | [10] 0.014 | Nexturastat A -0.102 | vemurafenib 0.018 | [11] 0.022 | [12] -0.028 | givinostat -0.038 | barasertib -0.001

NOA1 (UniProt Q8NC60)
inactive: IRAK-1-4 Inhibitor I -0.111 | ibrutinib 0.003 | [1] -0.108 | ralimetinib 0.081 | [2] 0 | [3] -0.142 | [4] 0.21 | pinometostat 0.105 | [5] 0.038 | [6] 0.009 | [7] 0.011 | [8] -0.057 | [9] -0.025 | [10] -0.054 | Nexturastat A 0.199 | vemurafenib -0.026 | [11] 0.006 | [12] 0.073 | givinostat 0.086 | barasertib -0.031

NME3 (UniProt Q13232)
inactive: IRAK-1-4 Inhibitor I -0.014 | ibrutinib 0.016 | [1] -0.005 | ralimetinib -0.087 | [2] -0.01 | [3] 0.088 | [4] -0.025 | pinometostat -0.039 | [5] 0.01 | [6] -0.027 | [7] -0.051 | [8] 0.026 | [9] 0.014 | [10] 0.012 | Nexturastat A -0.058 | vemurafenib -0.014 | [11] -0.025 | [12] -0.019 | givinostat -0.011 | barasertib -0.031

NQO2 (UniProt P16083)
inactive: IRAK-1-4 Inhibitor I 0.05 | ibrutinib 0.057 | [1] 0.015 | ralimetinib -0.039 | [2] 0.068 | [3] 0.083 | [4] -0.026 | pinometostat -0.036 | [5] 0.004 | [6] -0.001 | [7] -0.02 | [8] 0.018 | [9] 0.009 | [10] -0.006 | Nexturastat A -0.003 | vemurafenib -0.012 | [11] -0.044 | [12] -0.028 | givinostat -0.032 | barasertib 0.001
